These results are taken from paper PMC8396604.

Chains of the proteins cited; added tags and fusions are not shown.
UniProt P80206: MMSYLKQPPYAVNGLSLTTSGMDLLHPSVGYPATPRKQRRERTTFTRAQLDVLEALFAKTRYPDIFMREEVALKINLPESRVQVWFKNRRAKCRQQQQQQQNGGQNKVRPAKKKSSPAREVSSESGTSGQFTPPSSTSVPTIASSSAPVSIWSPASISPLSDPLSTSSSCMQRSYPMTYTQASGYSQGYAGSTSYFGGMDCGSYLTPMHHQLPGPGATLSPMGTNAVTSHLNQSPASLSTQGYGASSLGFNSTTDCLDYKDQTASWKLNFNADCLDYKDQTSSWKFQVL
UniProt Q91VC3: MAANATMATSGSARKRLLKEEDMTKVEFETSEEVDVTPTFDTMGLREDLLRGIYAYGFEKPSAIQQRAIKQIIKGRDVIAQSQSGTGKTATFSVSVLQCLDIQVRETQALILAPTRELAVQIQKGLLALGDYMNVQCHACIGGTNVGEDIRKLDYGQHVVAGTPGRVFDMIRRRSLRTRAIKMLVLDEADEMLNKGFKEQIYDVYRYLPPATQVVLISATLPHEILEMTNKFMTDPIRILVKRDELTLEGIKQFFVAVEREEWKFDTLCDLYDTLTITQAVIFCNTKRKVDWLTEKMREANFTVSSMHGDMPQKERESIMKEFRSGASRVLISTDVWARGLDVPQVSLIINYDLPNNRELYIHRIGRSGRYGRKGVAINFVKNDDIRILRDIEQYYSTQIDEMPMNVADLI
UniProt Q6P4T2: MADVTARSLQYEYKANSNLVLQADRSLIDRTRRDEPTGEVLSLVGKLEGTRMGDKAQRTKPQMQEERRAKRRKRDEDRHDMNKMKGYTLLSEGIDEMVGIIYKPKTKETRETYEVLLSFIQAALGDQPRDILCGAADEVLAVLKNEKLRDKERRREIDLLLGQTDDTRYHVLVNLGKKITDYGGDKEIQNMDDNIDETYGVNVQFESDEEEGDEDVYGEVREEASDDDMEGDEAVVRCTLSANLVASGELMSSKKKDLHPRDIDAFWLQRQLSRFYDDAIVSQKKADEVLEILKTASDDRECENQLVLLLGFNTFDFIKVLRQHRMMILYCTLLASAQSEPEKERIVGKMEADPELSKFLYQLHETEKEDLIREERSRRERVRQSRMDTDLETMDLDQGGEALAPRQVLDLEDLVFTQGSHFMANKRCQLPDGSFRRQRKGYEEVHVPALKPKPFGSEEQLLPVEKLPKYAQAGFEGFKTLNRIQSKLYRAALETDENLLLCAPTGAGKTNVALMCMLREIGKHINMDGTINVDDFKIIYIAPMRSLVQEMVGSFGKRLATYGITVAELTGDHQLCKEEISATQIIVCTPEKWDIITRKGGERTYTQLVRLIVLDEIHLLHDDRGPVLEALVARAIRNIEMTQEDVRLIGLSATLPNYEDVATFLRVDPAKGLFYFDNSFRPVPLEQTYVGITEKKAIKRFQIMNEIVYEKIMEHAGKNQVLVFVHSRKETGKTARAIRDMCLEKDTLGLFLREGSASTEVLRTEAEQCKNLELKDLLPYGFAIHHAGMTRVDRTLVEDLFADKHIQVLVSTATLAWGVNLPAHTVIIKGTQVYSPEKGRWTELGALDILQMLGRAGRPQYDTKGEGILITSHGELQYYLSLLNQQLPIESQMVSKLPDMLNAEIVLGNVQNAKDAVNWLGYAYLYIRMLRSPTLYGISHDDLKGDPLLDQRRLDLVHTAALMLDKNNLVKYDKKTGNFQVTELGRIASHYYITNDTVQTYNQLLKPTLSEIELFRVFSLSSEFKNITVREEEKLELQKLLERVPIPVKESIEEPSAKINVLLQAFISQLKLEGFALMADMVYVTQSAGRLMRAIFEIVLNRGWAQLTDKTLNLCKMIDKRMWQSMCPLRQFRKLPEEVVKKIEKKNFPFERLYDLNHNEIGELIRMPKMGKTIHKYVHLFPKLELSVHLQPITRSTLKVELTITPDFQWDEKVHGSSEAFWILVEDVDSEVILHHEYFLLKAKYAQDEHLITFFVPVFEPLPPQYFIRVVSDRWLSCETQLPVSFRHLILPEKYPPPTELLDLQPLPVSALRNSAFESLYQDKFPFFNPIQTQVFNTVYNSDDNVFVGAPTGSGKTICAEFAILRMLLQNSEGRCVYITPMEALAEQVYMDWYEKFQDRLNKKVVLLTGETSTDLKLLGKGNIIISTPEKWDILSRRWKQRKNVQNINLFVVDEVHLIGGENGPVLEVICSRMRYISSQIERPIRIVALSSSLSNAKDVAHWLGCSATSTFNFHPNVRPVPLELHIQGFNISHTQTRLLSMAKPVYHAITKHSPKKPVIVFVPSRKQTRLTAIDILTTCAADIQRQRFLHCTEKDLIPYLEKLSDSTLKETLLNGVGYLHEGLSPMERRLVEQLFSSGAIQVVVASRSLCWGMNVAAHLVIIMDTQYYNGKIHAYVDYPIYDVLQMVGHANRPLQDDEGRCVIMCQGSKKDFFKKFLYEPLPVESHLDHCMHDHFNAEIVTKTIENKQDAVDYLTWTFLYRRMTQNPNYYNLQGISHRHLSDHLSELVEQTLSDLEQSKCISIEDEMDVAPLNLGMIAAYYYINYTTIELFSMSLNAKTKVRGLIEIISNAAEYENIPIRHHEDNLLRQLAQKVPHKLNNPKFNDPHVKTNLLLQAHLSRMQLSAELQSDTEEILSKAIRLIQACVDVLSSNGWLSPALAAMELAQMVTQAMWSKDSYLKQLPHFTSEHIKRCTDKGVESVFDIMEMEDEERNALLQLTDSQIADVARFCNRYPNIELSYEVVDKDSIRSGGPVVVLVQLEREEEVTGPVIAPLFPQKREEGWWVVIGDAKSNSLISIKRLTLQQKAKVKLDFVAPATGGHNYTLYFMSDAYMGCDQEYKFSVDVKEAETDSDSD
UniProt B1AZI6: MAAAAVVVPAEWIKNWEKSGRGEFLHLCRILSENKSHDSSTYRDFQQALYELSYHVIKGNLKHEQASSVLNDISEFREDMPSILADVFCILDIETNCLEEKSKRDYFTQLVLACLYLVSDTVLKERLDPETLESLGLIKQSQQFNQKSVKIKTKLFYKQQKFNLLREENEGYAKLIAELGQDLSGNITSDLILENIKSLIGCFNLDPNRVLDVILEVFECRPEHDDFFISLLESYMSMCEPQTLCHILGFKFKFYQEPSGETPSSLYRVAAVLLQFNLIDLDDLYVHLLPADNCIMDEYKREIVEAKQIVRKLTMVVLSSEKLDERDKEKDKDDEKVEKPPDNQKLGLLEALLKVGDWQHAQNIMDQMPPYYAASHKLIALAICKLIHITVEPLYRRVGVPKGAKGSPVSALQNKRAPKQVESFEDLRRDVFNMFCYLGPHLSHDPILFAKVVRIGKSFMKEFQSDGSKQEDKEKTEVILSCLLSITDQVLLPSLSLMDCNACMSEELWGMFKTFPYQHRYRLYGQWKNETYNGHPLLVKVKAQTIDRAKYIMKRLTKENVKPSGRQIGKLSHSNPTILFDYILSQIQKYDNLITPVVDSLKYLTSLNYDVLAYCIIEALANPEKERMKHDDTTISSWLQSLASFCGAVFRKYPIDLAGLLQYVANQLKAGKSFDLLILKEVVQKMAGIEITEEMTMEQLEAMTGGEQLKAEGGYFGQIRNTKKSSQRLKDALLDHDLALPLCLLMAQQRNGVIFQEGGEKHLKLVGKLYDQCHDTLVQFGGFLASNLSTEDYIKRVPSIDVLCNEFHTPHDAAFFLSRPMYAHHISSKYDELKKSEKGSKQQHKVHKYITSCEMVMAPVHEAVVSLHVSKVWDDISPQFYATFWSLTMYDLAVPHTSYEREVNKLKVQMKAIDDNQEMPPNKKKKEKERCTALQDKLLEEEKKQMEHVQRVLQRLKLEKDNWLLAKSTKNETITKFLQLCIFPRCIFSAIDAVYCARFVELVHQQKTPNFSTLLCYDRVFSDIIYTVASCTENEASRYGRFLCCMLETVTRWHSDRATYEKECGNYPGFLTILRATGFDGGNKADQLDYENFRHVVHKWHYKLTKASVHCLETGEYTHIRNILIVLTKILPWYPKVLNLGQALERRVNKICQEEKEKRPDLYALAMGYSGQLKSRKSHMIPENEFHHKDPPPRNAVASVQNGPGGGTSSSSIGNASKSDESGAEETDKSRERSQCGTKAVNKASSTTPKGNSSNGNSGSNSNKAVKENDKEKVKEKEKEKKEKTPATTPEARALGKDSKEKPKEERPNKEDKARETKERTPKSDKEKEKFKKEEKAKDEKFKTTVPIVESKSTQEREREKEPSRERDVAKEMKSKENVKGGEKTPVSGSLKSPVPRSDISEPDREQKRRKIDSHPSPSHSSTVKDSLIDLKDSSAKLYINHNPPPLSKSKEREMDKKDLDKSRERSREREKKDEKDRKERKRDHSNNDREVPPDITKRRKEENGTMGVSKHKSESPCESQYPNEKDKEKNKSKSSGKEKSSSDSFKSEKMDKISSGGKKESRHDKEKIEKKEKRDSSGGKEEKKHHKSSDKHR

No constants are given. Whether binding was seen depends on the method and setting. Binding seen in cells or lysates may run through a third protein. These calls come from enrichment with a bait or labelling near it, and not all partners need be listed.

The target in assay [1] is OTX2 homeoprotein (mouse (endogenous in adult mouse brain tissue)) (UniProt P80206). Description: affinity purification with mass spectrometry; anti-OTX2 (ab21990) coupled to magnetic beads, lysates of SVZ, RMS and visual cortex pooled from ten 3-month-old wildtype mice; 20 mM Tris pH 8, 120 mM NaCl, 1% NP40, 1 mM MgCl2, 5% glycerol, benzonase; IgG co-IP as control; nano-LC-MS/MS; N = 1; hits common to the three structures.

The target is the same in assay [2]. Description: affinity purification with mass spectrometry; anti-OTX2 (ab21990) coupled to magnetic beads, lysate of pooled LV and 4V choroid plexus from four 3-month-old mice; 100 mM Tris pH 7.5, 1 mM EDTA, 100 mM NaCl, 1% NP40, 1 mM MgCl2, benzonase; 4 °C overnight; IgG co-IP as control; nano-LC-MS/MS; N = 3.

For EIF4A3 (from UniProt Q91VC3 1-411), the binding result in assay [1] was “binds”. For SNRNP200 (from UniProt Q6P4T2 1-2136), the binding entry in assay [1] was “binds”. The same measure, in the same setting: to THOC2 (from UniProt B1AZI6 1-1594) belongs “binds”.

B1: TNS2 (protein, UniProt Q8CGB6 1-1400)
chain: MKSSGPVERLLRALGRRDSSRATSRPRKAEPHSFREKVFRKKTPVCAVCKVTIDGTGVSCRVCKVATHRKCEAKVTSSCQALPPAELRRSTAPVRRIEHLGSTKSLNHSKQRSTLPRSFSLDPLMERRWDLDLTYVTERILAAAFPARPDEQRHRGHLRELAHVLQSKHRDKYLLFNLSEKRHDLTRLNPKVQDFGWPELHAPPLDKLCSICKAMETWLSADPQHVVVLYCKGSKGKLGVIVSAYMHYSKISAGADQALATLTMRKFCEDKVATELQPSQRRYVSYFSGLLSGSIRMNSSPLFLHYVFVPVLPAFEPNTGFQPFLKIYQSMQLVYTSGVYRIAGPGPQQLCISLEPALLLKGDVMVTCYHKGGQGTDRTLVFRVQFHTCTIHGSRLTFPKDQLDEAWADERFPFQASVEFVFSSSPEKVKGNTPRNDPSVSVDYNTTEPAVRWDSYENFNQHHEDSVDGALAHTRGPLDGSPYAQVQRVPRQTPPAPSPELPPPPMLSVSSDSGHSSTLTTEHTAESPGRPPPTAAERQELDRLLGGCGVASAGRGAGRETAILDDEEQPSVGGGLHLGMYSGHRPGLSRRCSCRQGFREPCGVPNGSYYRPEGTLERRRPPYGGYEGHPQGYAEASVEKRRLCRSLSEGPYPYAPELGKPANGDFGYRPAGYREVVILEDPGVPALCSCPACEEKLALPTAALYGLRLEREAAEGWSSEVGKPLLHPVRPGHPLPLLVPACGHHHAPMPDYGCLKPPKVGEEGHEGCSYAVCSEGRYGHSGYPALVTYGYGGAVPSYCPAYGRAPHSCGSPSEGRGYPSPGAHSPRAGSVSPGSPPYLQPRKLGYEISAEDGRDKYPLSGHLASTGPLASTESPEPSWRDGSSGHSTLPRSPRDPQCSASSELSGPSTPLHTSSPVQGKESNRRQDTTRSPSLAPTQRLSPGEALPSVVQGVAEKTPELLTSSRPEQLDPSPFSQTSAPGSPNGWPQERSPGGHTNSASPRSPVPTTLPGLRHAPWQGPRGTSDSPDGSPLTPVPTQMPWLVGSPEPPQSSPTPAFPLATSYDANGPIQPPLPEKRHLPGSGQQPSPPARSTNQHVTFASPLPDVTQPPEHPLQENQSNVKFVQDTSKFWYKPHLSRDQAIALLKDKDPGAFLIRDSHSFQGAYGLALKVATPPPSAQPWKGDPSEQLVRHFLIETGPKGVKIKGCPTEPYFGSLSALVSQHSISPISLPCCLRIPSKDPLEETPEAPVPTNMSTAADLLRQGAACSVLYLTSVETESLTGPQAVAKASSAALSCSPVPVPAIVHFKVSAQGITLTDNQRKLFFRRHYPVNSITFSSTDPQDRRWTNPDGATSKIFGFVAKKPGSPWENVCHLFAELDPDQPASAIVTFITKVLLGQRK
On to B1, for which the binding result in assay [2] is reported as “binds”.

B2: WDR70 (protein, UniProt Q3TWF6 1-657)
chain: MEHSGTSEVTGADTAGPDPQLAVTMGFTGFGKKARTFDLEAMFEQTRRTAVERSRKTLEAREKEEEMNREKELRKQIEDMEPAPSSSSAARERSQSSCRDTSSSDSESDDSSDSSDDELIGPPLPPKMVGESVTTVDEGTLGPLPPPLCEEGEDDDDDELDDEGEEDNPVQRIPDSHEITLRHGTKTVSALGLDPSGARLVTGGYDYDVKFWDFAGMDASFKAFRSLQPCECHQIKSLQYSNTGDMILVVSGSSQAKVIDRDGFEVMECIKGDQYIVDMANTKGHTAMLHTDSWHPKIKGEFMTCSNDATVRLWEVENPKKQKSVFKPRTMQGKKVIPTTCTYSRDGNLVAAACQNGSIQIWDRNLTVHPKFHYKQAHDPGTDTSCVAFSYDGNVLASRGGDDTLKLWDVRQFNKPLFSASDLPTLFPMTDCCFSPDDKLIVTGTSVQRGCGSGKLVFLERRTFQRVYEIHITDASVVRCLWHPKLNQIMVGTGNGLAKVYYDPNKSQRGAKLCVVKTQRKAKQAETLTQDYIITPHALPMFREPRQRSTRKQLEKDRLDPLKSHKPEPPVAGPGRGGRVGTHGGTLSSYIVKNIALDKTDDSNPREAILRHAKAAEDNPYWVSPAYSKTQPKTMFAQVESDDEESKNEPEWKKRKI
As for B2, the binding result in assay [2] is recorded as “binds”.

B3: ARHGEF7 (protein, UniProt Q9ES28 1-862)
chain: MNSAEQTVTWLITLGVLESPKKTISDPEVFLQASLKDGVVLCRLLERLLPGTIEKVYPEPRNESECLSNIREFLRACGASLRLETFDANDLYQGQNFNKVLSSLVTLNKVTADIGLGSDSVCARPSSHRIKSFDSLGSQSSHSRTSKLLQSQYRSLDMTDNTNSQLVVRAKFNFQQTNEDELSFSKGDVIHVTRVEEGGWWEGTHNGRTGWFPSNYVREIKPSEKPVSPKSGTLKSPPKGFDTTAINKSYYNVVLQNILETEHEYSKELQSVLSTYLRPLQTSDKLSSANTSYLMGNLEEISSFQQVLVQSLEECTKSPEAQQRVGGCFLSLMPQMRTLYLAYCANHPSAVSVLTEHSEDLGEFMETKGASSPGILVLTTGLSKPFMRLDKYPTLLKELERHMEDYHPDRQDIQKSMTAFKNLSAQCQEVRKRKELELQILTEPIRSWEGDDIKTLGSVTYMSQVTIQCAGSEEKNERYLLLFPNLLLMLSASPRMSGFIYQGKLPTTGMTITKLEDSENHRNAFEISGSMIERILVSCTSQQDLHEWVEHLQKQTKVTSVSNPTIKPHSVPSHTLPSHPLTPSSKHADSKPVALTPAYHTLPHPSHHGTPHTTISWGPLEPPKTPKPWSLSCLRPAPPLRPSAALCYKEDLSKSPKTMKKLLPKRKPERKPSDEEFAVRKSTAALEEDAQILKVIEAYCTSAKTRQTLNSTWQGTDLMHNHVLADDDQSSLDSLGRRSSLSRLEPSDLSEDSEYDSIWTAHSYRMGSASRSRKESAPQVLLPEEEKIIVEETKSNGQTVIEEKSLVDTVYALKDEVQELRQDNKKMKKSLEEEQRARKDLEKLVRKVLKNMNDPAWDETNL
Regarding B3, the binding entry in assay [2] is listed as “binds”.

B4: ARVCF (protein, UniProt P98203 1-962)
chain: MEDCNVHSAASILASVKEQEARFERLTRALEQERRHVALQLERAQQPGMSSGGMVGSGQPLPMAWQQLVLQEQSPGSQASLATMPEAPEVLEETVTVEEDPGTPTSHVSIVTSEDGTTRRTETKVTKTVKTVTTRTVRQVPLGPDGLPLLDGGPPLGSFADGPLDRHYLLRGGGGPAATLSRTYHSSGGGFPDGPESRDIPSYGSLSRGLGVRPPRTGLLGPGPGDGCFTLPGRREAFPMGSESGPPSGRSLPEHFQAEPYGLEDDTRSLAADDEGGPDLEPDYSTATRRRPEYGRGLRARAFEDTADDAGELIEERPPFPAATAPLAQPERGSLGSLDRVVRRSPSVDSTRKEPRWRDPELPEVLAMLRHPVDPVKANAAAYLQHLCFENEGIKRRVRQLRGLPLLVALLDHPRAEVRRRACGALRNLSYGRDTDNKAAIRDCGGVPALVRLLRAARDNEVRELVTGTLWNLSSYEPLKMVIIDHGLQTLTHEVIVPHSGWEREPNEDSKPRDAEWTTVFKNTSGCLRNVSSDGAEARRRLRECEGLVDALLHALQSAVGRKDTDNKSVENCVCIMRNLSYHVHKEVPGADRYQEAEPGIPGSTTSQRRRKDDASCFGGKKAKEEWFHQGKKDAEMDRNFDTLDLPKRTEAAKGFELLYQPEVVRLYLSLLTESRNFNTLEAAAGALQNLSAGNWTWATYIRATVRKERGLPVLVELLQSETDKVVRAVAIALRNLSLDQRNKDLIGSYAMTELVRNVRNAQAPAHPSAHLEEDTVVAVLNTIHEIVSDSLDNARSLLQARGVPALVALVASSQSVREAKAASHVLQTVWSYKELRGALQRDGWTKSRFQSASTAKGPKGTPSSGGFDDSTLPLVDKSLDGEKSNTRDVIPMDTLGPDGYATVDRRERRTLGSDSTGDTSEKELLRPDPGRKAPPPGPSRPSVRLVDAVGDTKPQPVDSWV
On to B4, for which the binding result in assay [2] is “binds”.

B5: TMPO (protein, UniProt Q61033 1-693)
chain: MPEFLEDPSVLTKDKLKSELVANNVTLPAGEQRKDVYVQLYLQHLTARNRPPLAAGANSKGPPDFSSDEEREPTPVLGSGASVGRGRGAVGRKATKKTDKPRLEDKDDLDVTELSNEELLDQLVRYGVNPGPIVGTTRKLYEKKLLKLREQGTESRSSTPLPTVSSSAENTRQNGSNDSDRYSDNDEGKKKEHKKVKSARDCVPFSELASTPSGAFFQGISFPEISTRPPLGRTELQAAKKVQTTKRDPPRETCTDTALPGKGQTHKLAPGRSLFIPSESSYDRCVEKSSSPSSQREFAARLVSAAASPSLIRETTTTYSKDIVENICRGGKSRAQPLRAEEPGVSDQSVFSSEREVLQESERSQVISPPLAQAIRDYVNSLLVQGGVGSLPGTSDSVPTLDVENICKRLSQSSYQDSESLSPPRKVPRLSEKPARGGDSGSCVAFQNTPGSEHRSSFAKSVVSHSLTTLGVEVSKPPPQHDKIEASEPSFPLHESILKVVEEEWQQIDRQLPSVACRYPVSSIEAARILSVPKVDDEILGFISEATPRAATQASSTESCDKHLDLALCRSYEAAASALQIAAHTAFVAKSLQADISQAAQIINSDPSDAQQALRILNRTYDAASYLCDAAFDEVRMSACAMGSSTMGRRYLWLKDCKISPASKNKLTVAPFKGGTLFGGEVHKVIKKRGNKQ
For B5, the binding result in assay [2] is recorded as “binds”.

B6: TJP2 (protein, UniProt Q9Z0U1 1-1167)
chain: MEEVIWEQYTVTLQKDSKRGFGIAVSGGRDNPHFENGETSIVISDVLPGGPADGLLQENDRVVMVNGTPMEDVLHSFAVQQLRKSGKIAAIVVKRPRKVQVAPLQGSPPLSHDDRGFEVIEEFDGRSFRSGYSERSRHSSHDMLSHSWEGNRERGRPHQRTQSRERERSRGRSLERGLDQEDYGRSRERSRGRSLERGLDRDFVSRDHSRGRSIDRDYDRDYERSYHEAYEPDYGGGYSPSYDRRAHPETRYERSRSREHLRSRSPSPESRSRHEHKGQHDPDRPIGVLLTKSKANEEYGLRLGSQIFIKEMTRTGLATKDGNLHEGDIILKINGTVTENMSLTDARKLIEKSRGKLQLVVLRDSKQTLINIPALNDSDSEVEDISEIESNRSFSPEERRQQYSDQDYHSSTEKLKERPSSREETSGRLSRMGATPTPFKSTGDITAAGVTEASREPRYQEEGPVPQPRTAPRVFLRPSPEDEAIYGPNTKMVRFKKGDSVGLRLAGGNDVGIFVAGIQEGTSAEQEGLQEGDQILKVNTQDFRGLVREDAVLYLLEIPKGETVTILAQSRADVYRDILACGRGDSFFIRSHFECEKETPQSLAFTRGEVFRVVDTLYDGKLGHWLAVRIGNELEKGLIPNKSRAEQMASVQNAQRENAGDRADFWRMRGQRSSGGVKKNLRKSREDLAAAVSVSTKFPAYEKVLLREAGFKRPVVLFGPIADIAMERLATELPDLFQTAKTEPKDAGSEKSSGVVRLNTVRQIIEQDKHALLDVTPKAVDLLNYTQWFPIVIFFNPDSRQGVKTIRQRLSPTSNKSSRKLFDQANKLKKTCSHLFTATINVNSANDGWFGSLKDSIQQQQNEAVWVSEGKMEGMDDDAEDRMSYLTAMGADYLSCDSRLISDFEDTDGEGGAYTDNELEEPAEEPLVSSITRSSEPVQHEENIRKSSPEPRAQMRRAASRDQLRDASPPPAFKPEPPKARSQNREDSFDYSKSNLPATAGSEIPGGSTKGYPPPIAAKPAFGRPILKPSTPVPMPESEEVGESTEEQEDAPRSVLGRVKIFEKMDHKAKLQRMQELQEAQNARIEIAQKHPDIYAVPIKAPKPDAGLPPHMSSRPPEPQKAPSRLYQDTRGSYGSDPEEEEYRQQLAAHSKRGYYSQPSRYRDTEL
Consider B6, for which, in assay [2], the binding entry is reported as “binds”.
